# Data: PubChem BioAssay AID504834 (National Center for Advancing Translational Sciences (NCATS), 2011)
# Among all 320,000 compounds or so, about 22,000 (6.9%) were called active. Inconclusive means that the source gave no clear call. Such entries were picked first, then a sample of the others. Calls follow the shape of the dose curve; as a rule, active = well fitted inhibition curve with a large enough effect; inconclusive = small, poorly fitted or top-dose-only effect, or another doubt; inactive = no such curve, though single readings can be large or run the other way. Potencies beside an inconclusive call are fits to weak or partial responses and may not hold up.
# Assay: Primary qHTS for delayed death inhibitors of the malarial parasite plastid, 96 hour incubation
# Details: P. falciparum luciferase reporter growth; series mostly up to 28.7 µM; activity change, negative = inhibition: at the top concentration
# How it was run: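 P. falciparum expressing integrated firefly luciferase grown in erythrocytes (2% hematocrit, 0.05% parasitemia final) with compounds for 96 hours at 37 C, 5% CO2. Growth inhibition read as loss of luminescence after adding luciferase detection reagent.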
# % is scaled to controls: 0 for no effect and ±100 for the full control effect; potency is read from the fitted curve at half-maximal effect.
SMILES,Potency,"activity change, negative = inhibition"
COc1ccc(CP(=O)(c2ccccc2)c2ccccc2)cc1,"inconclusive: 11.7 µM [inhibitor, partial curve, poor fit]",
COc1ccc(NC(=O)C2C3C=CC4(CN(Cc5cccnc5)C(=O)C24)O3)c(OC)c1 (stereo unspecified),"inconclusive: 1.31 µM [inhibitor, full curve]",
Nc1cc(N)nc(SCC(=O)NNC(=O)Cc2ccccc2)n1,,inactive: 21.2%
COc1cccc(NC(=O)CCCn2c(=S)[nH]c3ccccc3c2=O)c1,"inconclusive: 13.1 µM [inhibitor, single point]",
Cc1ccc(-c2cc(-c3ccco3)c3c(N)c(C(=O)NN)oc3n2)cc1,"inconclusive: 2.62 µM [inhibitor, full curve]",
Clc1ccc(C2=NNC(=NCc3ccc4c(c3)OCO4)SC2)cc1,"inconclusive: 11.7 µM [inhibitor, single point]",
COCCN1C=C2C(=O)C(C)(OC(=O)c3cccs3)C(=O)C=C2C=C1CCCC(=O)OC (stereo unspecified),"inconclusive: 11.7 µM [inhibitor, single point]",
CCN(CC)c1ccc(C2Nc3cccc4cccc(c34)N2)c(O)c1,,inactive: -20.9%
Cc1ccc(N=Nc2ccc(O)c(P(=O)(c3ccccc3)c3ccccc3)c2)cc1,"inconclusive: 13.1 µM [inhibitor, single point]",
NNC(=O)COc1cccc2cccnc12,,inactive: -3.45%
Cc1cc(C)cc(NC(=O)C2CCCN2S(=O)(=O)c2ccc3c(c2)C(C)(C)C(=O)N3C)c1 (stereo unspecified),"inconclusive: 14.7 µM [inhibitor, single point]",
CC(=O)O[C@H]1C[C@@]2(C)[C@@H](C[C@@H](O)[C@H]3[C@@]4(C)CC[C@@H](O)[C@@H](C)C4CC[C@@]32C)/C1=C(\CCC=C(C)C)C(=O)O (stereo partly specified),"inconclusive: 18.5 µM [inhibitor, single point]",
COc1ccc(NC(=O)CSc2ncnc3sc(C)cc23)cc1,"inconclusive: 16.5 µM [inhibitor, partial curve, poor fit]",
CCOc1cccc(CN2CCCC(C(=O)Nc3cccc(-n4cccn4)c3)C2)c1 (stereo unspecified),"inconclusive: 18.5 µM [inhibitor, single point]",
CC(C)OP(=O)(OC(C)C)C(Nc1ccccc1)c1cccc2c1OCO2 (stereo unspecified),"inconclusive: 18.5 µM [inhibitor, single point]",
O=C(O)c1ccc(CSc2ccccn2)cc1,,inactive: 12%
Fc1ccc(-c2nc3c(-c4ccc(Cl)cc4)cnn3cc2CCN2CCOCC2)cc1,"inconclusive: 13.1 µM [inhibitor, partial curve]",
O=C(CCc1nc2ccccc2c(=O)[nH]1)Nc1cc(C(F)(F)F)ccc1N1CCOCC1,,inactive: -16.9%
C/C(=N\NC(=O)C(C)Oc1ccc([N+](=O)[O-])cc1)c1ccccn1 (stereo unspecified),active: 2.08 µM,
O=[N+]([O-])c1ccc2nnn(O)c2c1,"inconclusive: 5.22 µM [inhibitor, partial curve, poor fit]",
COc1ccc(N(C)S(=O)(=O)c2ccc3c(c2)CCN3C(=O)C2CC2)c(OC)c1,active: 4.15 µM,
COc1ccc2[nH]c(=O)c(CN(c3ccc(C)c(C)c3)S(C)(=O)=O)cc2c1,active: 6.57 µM,
N#CCCNc1ccc(OCCC#N)cc1,,inactive: -18.9%
CCOC(=O)N1CCC(NC(=O)c2ccc3c(c2)N(Cc2ccccc2)CCS3)CC1,"inconclusive: 5.22 µM [inhibitor, partial curve, poor fit]",

# Three entries picked at random from the list so far:
SMILES,Potency,"activity change, negative = inhibition"
COc1ccc(NC(=O)CSc2ncnc3sc(C)cc23)cc1,"inconclusive: 16.5 µM [inhibitor, partial curve, poor fit]",
CCN(CC)c1ccc(C2Nc3cccc4cccc(c34)N2)c(O)c1,,inactive: -20.9%
CCOc1cccc(CN2CCCC(C(=O)Nc3cccc(-n4cccn4)c3)C2)c1 (stereo unspecified),"inconclusive: 18.5 µM [inhibitor, single point]",

# Later entries:

SMILES,Potency,"activity change, negative = inhibition"
COc1cccc(-c2nc(CS(=O)(=O)CC(=O)NCCN3CCOCC3)c(C)o2)c1,"inconclusive: 18.5 µM [inhibitor, single point]",
Cc1oc(/C=N/NC(=O)CC2(C)OCCO2)cc1Br,"inconclusive: 18.5 µM [inhibitor, single point]",
CC(O)COc1ccc(/C(=N/O)c2ccccc2)cc1 (stereo unspecified),,inactive: -8.66%
COc1ccc(OCCCC(=O)Nc2nc(-c3ccccn3)cs2)cc1,"inconclusive: 10.4 µM [inhibitor, single point]",
CCOC(=O)c1ccc(NC(=O)C2CC(=O)N(c3ccc4c(c3)OCCO4)C2)cc1 (stereo unspecified),"inconclusive: 18.5 µM [inhibitor, single point]",
COc1ccc(-n2nnnc2SCC(=O)c2cccc(OC)c2)cc1,"inconclusive: 9.28 µM [inhibitor, partial curve, poor fit]",
Cc1ccc(NS(=O)(=O)c2ccc(-n3cccn3)cc2)c(C)c1,"inconclusive: 1.04 µM [inhibitor, full curve]",
COC(=O)c1ccc(-c2ccco2)n1Cc1cc(C)ccc1C,"inconclusive: 7.38 µM [inhibitor, single point]",
O=C(CCN1C(=O)c2cccc3cccc(c23)C1=O)Nc1ccon1,,inactive: -16.6%
Oc1cc(Nc2ccncc2)cc2cccnc12,"inconclusive: 14.7 µM [inhibitor, single point]",
Oc1cc2cc(CCN3CCN(c4nsc5ccccc45)CC3)c(Cl)cc2[nH]1,active: 10.7 µM,
CC1(C)C(c2ccccn2)=[N+]([O-])C(C)(C)N1O,"inconclusive: 18.5 µM [inhibitor, single point]",
COc1cccc(CSc2nc3ccccc3[nH]2)c1,,inactive: 160%
Fc1cccc(Cn2ccc(-c3ccc4c(c3)OCO4)n2)c1,,inactive: 62.7%
CC1CCc2c(sc(NC(=O)C3=COCCO3)c2C(N)=O)C1 (stereo unspecified),,inactive: 177%
CC(C)C(NC(=O)c1ccc(C(C)(C)C)cc1)C(=O)N1CCC(C(N)=O)CC1 (stereo unspecified),"inconclusive: 18.5 µM [inhibitor, single point]",
CNC(=O)C1CC(=O)N(CCCc2ccccc2)C(=Nc2ccccc2)S1 (stereo unspecified),"inconclusive: 0.465 µM [inhibitor, full curve, poor fit]",
CC(C)(C)OC(=O)N1CCC(CC2CC(c3cccc(Br)c3)=NO2)(C(=O)O)CC1 (stereo unspecified),"inconclusive: 13.1 µM [inhibitor, single point]",
COc1ccc(NC(=O)C(C)N=C2NS(=O)(=O)c3ccccc32)cc1S(N)(=O)=O (stereo unspecified),,inactive: 8.55%
Cn1cc(CCNC(=O)CC2C(=O)NCCN2Cc2cccc(Oc3ccccc3)c2)cn1 (stereo unspecified),"inconclusive: 16.5 µM [inhibitor, single point]",
COc1cccc(C(=O)NCCC(=O)NCc2cc(=O)n(C)c(=O)n2C)c1,,inactive: 9.82%
CC(=O)N1c2ccc(C)cc2C(c2ccccc2)CC1C (stereo unspecified),"inconclusive: 1.47 µM [inhibitor, partial curve, poor fit]",
O=C(NC(=S)Nc1ccc2[nH]c(=O)[nH]c2c1)c1ccccc1[N+](=O)[O-],"inconclusive: 0.0828 µM [inhibitor, partial curve, poor fit]",
O=C(Nc1ccc(Cl)c([N+](=O)[O-])c1)c1ccco1,,inactive: 0%

SMILES,Potency,"activity change, negative = inhibition"
Cc1cccc(NCc2nc3ccccc3n2Cc2ccccc2)c1,"inconclusive: 4.15 µM [inhibitor, partial curve, poor fit]",
Cc1ccc(Cl)cc1NC(=S)Nn1cnnc1,active: 2.62 µM,
CCOC(=O)C1(CC2CC2)CCN(Cc2cnc(-c3ccccc3C)nc2)CC1,"inconclusive: 18.5 µM [inhibitor, single point]",
Cn1c(=O)c(C(=O)COC(=O)c2cc(C(F)(F)F)nc3ccccc23)c(N)n(Cc2ccccc2)c1=O,"inconclusive: 16.5 µM [inhibitor, single point]",
CC(C)C[C@@H](COc1ccccc1)N1CCN(Cc2ccccc2)CCC1=O,"inconclusive: 11.7 µM [inhibitor, partial curve, poor fit]",
Cc1cccc2c1cnn2C(=O)Nc1cc(F)ccc1F,,inactive: 5.55%
CCOc1ccc(NC(=O)C2CCN(C(=O)C3CC(=O)N(c4ccc(C)cc4)C3)CC2)cc1 (stereo unspecified),"inconclusive: 8.28 µM [inhibitor, partial curve]",
Cc1nnc(C)n1/N=C/c1cccc([N+](=O)[O-])c1,,inactive: -4.79%
COc1cccc(C(=O)N2CCC(CCC(=O)Nc3cccc(C)c3)CC2)c1,,inactive: 1.1%
Cc1ccccc1-n1ncc2c1CC(C)(C)CC2NC(=O)c1snnc1C (stereo unspecified),active: 5.86 µM,
C#CCOCCOCCOCCNc1nc(N2CCN(C(=O)Cn3cc(CCCN=C(N)N)nn3)CC2)nc(N2CCN(C(=O)[C@H]([C@@H](C)CC)n3cc(CCCCN)nn3)CC2)n1,"inconclusive: 14.7 µM [inhibitor, single point]",
O=C1CN(C(=O)COc2ccc(Br)cc2F)c2ccccc2N1,active: 8.28 µM,
CSCCC(NC(C)=O)C(=O)Oc1ccc2c3c(c(=O)oc2c1)CCCC3 (stereo unspecified),"inconclusive: 18.5 µM [inhibitor, single point]",
COc1cc(OC)cc(C(=O)N[C@H](C(=O)NCc2ccccc2)C(C)C)c1,,inactive: -25.4%
COc1ccc(S(=O)(=O)N2CCOCC2)cc1NC(=O)c1cc2ccccc2o1,"inconclusive: 16.5 µM [inhibitor, single point]",
Cc1cccc(C(=O)NCC(=O)N2CCCCCCC2)c1,,inactive: 72.6%
COc1cc(C(=O)OCCN2CCOCC2)cc(OC)c1OC,,inactive: -24.1%
c1ccc(Cn2nnc3c(N4CCc5ccccc5C4)ncnc32)cc1,,inactive: 46.8%
CC(C)CSc1ccc(S(=O)(=O)NCC(=O)O)cc1[N+](=O)[O-],,inactive: 22.6%
CN(C)c1ccc(C=C2C(=O)OC(C)(C)OC2=O)cc1,"inconclusive: 18.5 µM [inhibitor, single point]",
CC1CCCC(NC(=O)COC(=O)CN2C(=O)C3CCCCC3C2=O)C1C (stereo unspecified),"inconclusive: 18.5 µM [inhibitor, single point]",
CCOP(=O)(OCC)C(NS(=O)(=O)c1ccccc1)C(Cl)(Cl)Cl (stereo unspecified),,inactive: 40.9%
Cc1ccc(CNC(=O)[C@H]2C[C@@H]2[C@H](NP(=O)(c2ccccc2)c2ccccc2)c2ccccc2)o1,"inconclusive: 10.4 µM [inhibitor, single point]",
